Results are given in words; binding and its absence hold for the method and conditions named. In cells and extracts the contact can be indirect. Some entries that bind do so weakly or less than the wild type. Tags and fused reporters may be left off the sequences shown.
Assays:
[1] = biological target: T1, YFP-SAS-4 (Drosophila SAS-4/CPAP expressed in fission yeast) (Drosophila) (UniProt Q9VI72); experiment: co-IP
T1 sequence: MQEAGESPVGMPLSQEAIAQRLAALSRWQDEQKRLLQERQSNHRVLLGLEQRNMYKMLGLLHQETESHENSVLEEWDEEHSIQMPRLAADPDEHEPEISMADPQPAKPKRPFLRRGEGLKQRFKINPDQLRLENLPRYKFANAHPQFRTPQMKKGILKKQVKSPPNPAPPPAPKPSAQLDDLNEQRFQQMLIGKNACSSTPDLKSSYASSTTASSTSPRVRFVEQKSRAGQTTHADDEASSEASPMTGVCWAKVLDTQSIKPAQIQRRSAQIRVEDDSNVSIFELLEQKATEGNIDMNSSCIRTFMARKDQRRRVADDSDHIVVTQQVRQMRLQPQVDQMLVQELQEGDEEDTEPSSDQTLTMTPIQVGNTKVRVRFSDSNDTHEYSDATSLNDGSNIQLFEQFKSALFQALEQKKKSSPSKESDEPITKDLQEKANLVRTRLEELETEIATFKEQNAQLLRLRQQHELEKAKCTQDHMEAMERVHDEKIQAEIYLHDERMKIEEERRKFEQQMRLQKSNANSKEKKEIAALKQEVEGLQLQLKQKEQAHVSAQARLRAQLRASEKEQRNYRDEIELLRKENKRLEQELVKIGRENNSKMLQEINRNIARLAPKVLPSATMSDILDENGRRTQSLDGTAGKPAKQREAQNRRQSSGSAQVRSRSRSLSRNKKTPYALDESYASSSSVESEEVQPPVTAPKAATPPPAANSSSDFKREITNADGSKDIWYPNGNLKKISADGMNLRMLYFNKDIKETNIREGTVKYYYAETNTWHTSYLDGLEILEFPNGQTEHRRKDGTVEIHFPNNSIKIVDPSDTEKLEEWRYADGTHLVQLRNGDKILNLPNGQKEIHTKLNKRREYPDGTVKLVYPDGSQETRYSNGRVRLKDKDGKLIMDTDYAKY

[2] = biological target: T2, SAS-6-GFP (Drosophila SAS-6 expressed in fission yeast) (Drosophila) (UniProt Q9VAC8); experiment: co-IP
T2 sequence: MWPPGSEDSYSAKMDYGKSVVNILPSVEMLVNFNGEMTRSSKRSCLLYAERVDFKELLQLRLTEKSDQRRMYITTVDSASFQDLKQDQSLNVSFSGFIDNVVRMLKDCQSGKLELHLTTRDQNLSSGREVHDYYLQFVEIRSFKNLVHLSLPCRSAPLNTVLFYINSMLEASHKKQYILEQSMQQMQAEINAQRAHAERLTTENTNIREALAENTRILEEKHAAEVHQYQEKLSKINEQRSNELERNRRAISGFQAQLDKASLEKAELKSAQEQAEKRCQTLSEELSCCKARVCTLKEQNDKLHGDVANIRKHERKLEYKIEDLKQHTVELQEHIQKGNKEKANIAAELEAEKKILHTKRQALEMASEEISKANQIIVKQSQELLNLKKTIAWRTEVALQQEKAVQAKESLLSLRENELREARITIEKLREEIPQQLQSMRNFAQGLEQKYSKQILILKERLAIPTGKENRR

B1: HA-tagged Pcp1 (fission yeast pericentrin orthologue) (protein, UniProt Q92351 1-1208)
chain: MSERDFNTQSPKFKDENANSVISQSDFLGKSLKNNNDDYSDFRGSYLNDKSSFQTPLRNGSYQPKGSLEFTPLLQSSNKNSDKYNGSLGDKGSFDPNSYGLSAISKQATQEALSISQGNDSYDVSKLTDLSKNSEIDHTDGELPANAALTLREQEKVLEKVSRENFGLRIKIVCLEKRLESMAPEQIKEAVKDNVELHAERANLQLQLKRTESLLQKSEDKNFKLEEKVDYLSKVNDVEQSQNVKVFTERIRFLENALEKVQREKDSLSTEMEEDKSNKEVDYEYEIRQLQNRLDELSEELDVAQDLLTEKEDEIATLKRQIEEKENSSSAFENEENSSYVHLQEDYAILQAKCDEFADRIQVLTADLEKEKENQIMHESEASIGLTDSMQVHTLQEQLHKANEEIEFLHDQISRMNEEGKNFEDIMLQFRSLEEERDVLESKLQTLEDDNNSLRLMTSSLGNQIESLRTQNREIDEEKNHLRLLASKNSDKALAETNIRLQEVTKELETLRMKNSNDLNEIHDLREENEGLTLKIDSITKEKDRLINELEQRIKSYEVNVSELNGTIDEYRNKLKDKEETYNEVMNAFQYKDNDLRRFHESINKLQDREKELTSNLEKKNLVISSLRETVAMLEKERESIKKYLSGNAKDLDNTNLMEILNDKISVLQRQLTDVKDELDVSEEEREEAIVAGQKLSASFELMSNEKQALELKYSSLKNELINAQNLLDRREEELSELSKKLFEERKIRSGSNDDIEKNKEINVLNSELADKLAQIRHLESDKMELDKLVHHLNRGIEEANIEENAVKKRLCLLMGCDYSSVSILQIVSQIEHFVNQQIQTIRSLKQELRHDFVQFSGKKEQELSRSFEKFGLGTETKHDILAQRNRNVSEKMNDLENAAQKFFSSPDRKNGYLYPSEHTSKIEYLEKTIEDLKLALQDELKNRNLLMDDISSYNKQTTKLQEKIKWLERERSILIDELESYRSNQFNYQNNLVQDKNELEERLKEIQKELEVYNNHFMKQAELMTSNVTDESQLMLKTLREALQSKTNNIDHLSTILERNRKEYKSLLDDYNQLRARYKNLQSNTPQSTQSGQYESEIKGLSKLTKYLQSKCRREHSLRLDLAFSKKFILMQLTGYETCNKINLRMLQKIGISPDPDLSKKHIKLKSLIIVVCSIERMKRMKNEWLKQAQLKQSLQRAAAKAKTANY
- binding [1]: binds
- binding [2]: binds

B2: mCherry-tagged full-length Pcp1 (protein, UniProt Q92351 1-1208)
chain: MSERDFNTQSPKFKDENANSVISQSDFLGKSLKNNNDDYSDFRGSYLNDKSSFQTPLRNGSYQPKGSLEFTPLLQSSNKNSDKYNGSLGDKGSFDPNSYGLSAISKQATQEALSISQGNDSYDVSKLTDLSKNSEIDHTDGELPANAALTLREQEKVLEKVSRENFGLRIKIVCLEKRLESMAPEQIKEAVKDNVELHAERANLQLQLKRTESLLQKSEDKNFKLEEKVDYLSKVNDVEQSQNVKVFTERIRFLENALEKVQREKDSLSTEMEEDKSNKEVDYEYEIRQLQNRLDELSEELDVAQDLLTEKEDEIATLKRQIEEKENSSSAFENEENSSYVHLQEDYAILQAKCDEFADRIQVLTADLEKEKENQIMHESEASIGLTDSMQVHTLQEQLHKANEEIEFLHDQISRMNEEGKNFEDIMLQFRSLEEERDVLESKLQTLEDDNNSLRLMTSSLGNQIESLRTQNREIDEEKNHLRLLASKNSDKALAETNIRLQEVTKELETLRMKNSNDLNEIHDLREENEGLTLKIDSITKEKDRLINELEQRIKSYEVNVSELNGTIDEYRNKLKDKEETYNEVMNAFQYKDNDLRRFHESINKLQDREKELTSNLEKKNLVISSLRETVAMLEKERESIKKYLSGNAKDLDNTNLMEILNDKISVLQRQLTDVKDELDVSEEEREEAIVAGQKLSASFELMSNEKQALELKYSSLKNELINAQNLLDRREEELSELSKKLFEERKIRSGSNDDIEKNKEINVLNSELADKLAQIRHLESDKMELDKLVHHLNRGIEEANIEENAVKKRLCLLMGCDYSSVSILQIVSQIEHFVNQQIQTIRSLKQELRHDFVQFSGKKEQELSRSFEKFGLGTETKHDILAQRNRNVSEKMNDLENAAQKFFSSPDRKNGYLYPSEHTSKIEYLEKTIEDLKLALQDELKNRNLLMDDISSYNKQTTKLQEKIKWLERERSILIDELESYRSNQFNYQNNLVQDKNELEERLKEIQKELEVYNNHFMKQAELMTSNVTDESQLMLKTLREALQSKTNNIDHLSTILERNRKEYKSLLDDYNQLRARYKNLQSNTPQSTQSGQYESEIKGLSKLTKYLQSKCRREHSLRLDLAFSKKFILMQLTGYETCNKINLRMLQKIGISPDPDLSKKHIKLKSLIIVVCSIERMKRMKNEWLKQAQLKQSLQRAAAKAKTANY
- binding [2]: binds

From paper doi:10.1101/313494
